Data as given in patent US20160046678A1 (ZYNGENIA, published 2016).
No constants are given. Whether binding was seen depends on the method and setting. Some results given as binding are weak or reduced against the parent protein; the word gives no strength.

T1: TL1A (UniProt O95150)
T1 sequence (looked up): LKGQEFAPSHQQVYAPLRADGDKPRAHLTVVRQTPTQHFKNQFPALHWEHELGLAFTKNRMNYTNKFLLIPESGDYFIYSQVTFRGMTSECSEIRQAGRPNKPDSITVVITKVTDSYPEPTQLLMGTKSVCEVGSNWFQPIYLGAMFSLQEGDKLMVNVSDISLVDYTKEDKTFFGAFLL


The binders below were run against T1, TL1A (assay: peptide selection, Example 48).
With PPAVCWDNNSSKLVFCHSFI [TLA313] the binding was “binds”. In the case of SSNVCWDDVLETLRFCHTHM [TLA314], the binding is reported as “binds”. In the case of LDQVCWDLYANKLIFCADVI [TLA315], the binding is reported as “binds”. With NLDVCWDNNRGKLMFCRNHD [TLA316] the binding was “binds”. For SYAVCWNALEEKLVFCTDEI [TLA317], the binding was “binds”. In the case of PNEVCWDSHKEKLVFCTHQM [TLA318], the binding is reported as “binds”. In the case of EYALCWLEAQEKLDWCTELN [TLA319], the binding is reported as “binds”. In the case of ENAVCWDESQEKLVWCNGIR [TLA321], the binding is reported as “binds”. In the case of ESDVCWNENVEQLEFCNGRF [TLA323], the binding is reported as “binds”. For EYAVCWDEAPEKLIWCEGLN [TLA324], the binding was “binds”. RWAVCWDTDRQKLLFCGPML [TLA325] was tested, and the binding was “binds”. For LDLVCWDENSQKLLFCTKPG [TLA326], the binding was “binds”. In the case of QSSVCWDYNSQKLRFCDMSL [TLA327], the binding is reported as “binds”. In the case of RLDVCWDEHASKLVFCRSYM [TLA328], the binding is reported as “binds”. With ISAVCWDTQLQKLVFCNASM [TLA329] the binding was “binds”. For LDTVCWDIHSGRLVFCASLL [TLA330], the binding was “binds”. For EYALCWDDPLEKLQWCKDIS [TLA331], the binding was “binds”. In the case of EYALCWNEVQEKLVWCKELN [TLA332], the binding is reported as “binds”. For EYAVCWDEVQDKLVWCNGVN [TLA333], the binding was “binds”. In the case of EYAVCWDEVQERLEWCTRPN [TLA334], the binding is reported as “binds”. With EFAVCWDDGQEKLVWCNRLH [TLA335] the binding was “binds”. In the case of EYALCWNEVHEQLEFCIGRN [TLA336], the binding is reported as “binds”. In the case of RSEVCWDTHLFKLVYCQDWF [TLA337], the binding is reported as “binds”. With QSYVCWDEHQSRLRFCSETI [TLA338] the binding was “binds”. With PDTVCWDDHLGKLMFCSSIM [TLA339] the binding was “binds”. In the case of RNHVCWDEYTEKLRFCGDGA [TLA340], the binding is reported as “binds”. For HSDVCWDDHMDKLAFCWHMI [TLA341], the binding was “binds”. FTAVCWDYHSNKLQFCSTLM [TLA342] was tested, and the binding was “binds”. In the case of DYAVCWDDVRGKLVWCKGLK [TLA343], the binding is reported as “binds”. In the case of EYDLCWDEIRQKLEWCQGLT [TLA344], the binding is reported as “binds”. EYAVCWDAENEKLEWCEGLN [TLA345] was tested, and the binding was “binds”. In the case of KHFVCWDELNEKLVWCKGLI [TLA346], the binding is reported as “binds”. In the case of EYAVCWNEDHAKLEWCQELN [TLA347], the binding is reported as “binds”. For LSMVCWDQHQERLVFCINRM [TLA349], the binding was “binds”. With AQYVCWDDKEQKLKFCEDQM [TLA350] the binding was “binds”. With RYAVCWDESTEKLVYCQNQM [TLA351] the binding was “binds”. For NEFVCWDEYKNKLVFCVPTL [TLA352], the binding was “binds”. For RFFVCWDHDNSKLVFCSQNM [TLA353], the binding was “binds”. With RYAVCWDEAQEKLVWCGRVN [TLA356] the binding was “binds”. With AFDVCWVEALEKLEWCLGHN [TLA357] the binding was “binds”. In the case of SSDVCWEAHSEKLYFCDPAR [TLA358], the binding is reported as “binds”. For KLYVCWDKYKEKLVFCQALM [TLA359], the binding was “binds”. For KSEVCWDYDMNKLMFCFYDM [TLA360], the binding was “binds”. For LDAVCWDTQQQKLRFCHTHM [TLA361], the binding was “binds”. With RSDVCWDAHLDKLIFCAGVM [TLA362] the binding was “binds”. In the case of DHAVCWNEFQEKLDWCTGLN [TLA364], the binding is reported as “binds”. For QNDVCWDYHRGKLAFCEALI [TLA366], the binding was “binds”. DTDVCWDHVQGKLYFCTKSL [TLA367] was tested, and the binding was “binds”. With TSDVCWNYHYSKLQFCQQSM [TLA368] the binding was “binds”.
